The source of these data is publication PMC10510397 (Journal of Medicinal Chemistry, 2023).

Numbered stars: 1 amine (or outer) side, 2 acyl side, 3 side chain; on linkers, the order of the positions; unused ones are H or OH. Bridge positions count the residues as written; N and C are the ends. Square brackets hold non-standard residues; d marks the D form. CH2COCH2 = O=C(C[*:1])C[*:2]; CH2 = C([*:1])[*:2]; Mpa = O=C(O)CCS

The data set in a line: general procedure: Fmoc solid-phase peptide synthesis; rink amide or 2-chlorotrityl chloride resin; HCTU/DIPEA; HATU/DIPEA for N-terminal 3-(tritylthio)propanoic acid. The conditions noted are these: cyclisation step, 214 nm.
Take “[Mpa]YGGFLRRCRPKLK-NH2 (linker 1-9 via CH2)”: the “final HPLC purity” value stood at 97.3%.

Consider “[Mpa]YGGFLRRCRPKLK-NH2 (linker 1-9 via CH2COCH2; SMILES CC(C)C[C@H](NC(=O)[C@H](CCCCN)NC(=O)[C@@H]1CCCN1C(=O)[C@H](CCCNC(=N)N)NC(=O)[C@@H]1CSCC(=O)CSCCC(=O)N[C@@H](Cc2ccc(O)cc2)C(=O)NCC(=O)NCC(=O)N[C@@H](Cc2ccccc2)C(=O)N[C@@H](CC(C)C)C(=O)N[C@@H](CCCNC(=N)N)C(=O)N[C@@H](CCCNC(=N)N)C(=O)N1)C(=O)N[C@@H](CCCCN)C(N)=O)”, for which the “final HPLC purity” value turned out to be 96.3%.

Turning to “[Mpa]YGGFLRRCRPKLK-OH (linker 1-9 via CH2; SMILES CC(C)C[C@H](NC(=O)[C@H](CCCCN)NC(=O)[C@@H]1CCCN1C(=O)[C@H](CCCNC(=N)N)NC(=O)[C@@H]1CSCSCCC(=O)N[C@@H](Cc2ccc(O)cc2)C(=O)NCC(=O)NCC(=O)N[C@@H](Cc2ccccc2)C(=O)N[C@@H](CC(C)C)C(=O)N[C@@H](CCCNC(=N)N)C(=O)N[C@@H](CCCNC(=N)N)C(=O)N1)C(=O)N[C@@H](CCCCN)C(=O)O)”, the “final HPLC purity” value is on record as 97.8%.

For “[Mpa]YGGFLRRCRPKLK-OH (linker 1-9 via CH2COCH2; SMILES CC(C)C[C@H](NC(=O)[C@H](CCCCN)NC(=O)[C@@H]1CCCN1C(=O)[C@H](CCCNC(=N)N)NC(=O)[C@@H]1CSCC(=O)CSCCC(=O)N[C@@H](Cc2ccc(O)cc2)C(=O)NCC(=O)NCC(=O)N[C@@H](Cc2ccccc2)C(=O)N[C@@H](CC(C)C)C(=O)N[C@@H](CCCNC(=N)N)C(=O)N[C@@H](CCCNC(=N)N)C(=O)N1)C(=O)N[C@@H](CCCCN)C(=O)O)”, the “final HPLC purity” value was found to be 98.5%.
